From PMC4792581

The chains behind the UniProt entries cited, without tags or fusion partners. Where a name states a change or a piece, a line headed by the entry shows the natural chain unless it says otherwise.
UniProt P10415: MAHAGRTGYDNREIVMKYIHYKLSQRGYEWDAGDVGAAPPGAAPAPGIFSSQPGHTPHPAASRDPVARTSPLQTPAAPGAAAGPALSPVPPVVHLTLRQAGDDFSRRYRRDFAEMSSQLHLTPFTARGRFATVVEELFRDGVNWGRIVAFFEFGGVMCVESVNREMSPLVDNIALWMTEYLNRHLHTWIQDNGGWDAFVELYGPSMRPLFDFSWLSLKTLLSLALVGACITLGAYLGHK

Target: Bcl2 with deleted BH3 domain (human) (UniProt P10415)
Test: co-IP; HEK293T transfected with vector, Bcl2 WT or mutant plasmids; MG132 (10 μM) for 6 h before lysis; lysates immunoprecipitated and blotted

- binding: no binding
B1: PPARα (peroxisome-proliferator-activated receptor α), endogenous (protein, UniProt Q07869 1-468)
chain: MVDTESPLCPLSPLEAGDLESPLSEEFLQEMGNIQEISQSIGEDSSGSFGFTEYQYLGSCPGSDGSVITDTLSPASSPSSVTYPVVPGSVDESPSGALNIECRICGDKASGYHYGVHACEGCKGFFRRTIRLKLVYDKCDRSCKIQKKNRNKCQYCRFHKCLSVGMSHNAIRFGRMPRSEKAKLKAEILTCEHDIEDSETADLKSLAKRIYEAYLKNFNMNKVKARVILSGKASNNPPFVIHDMETLCMAEKTLVAKLVANGIQNKEAEVRIFHCCQCTSVETVTELTEFAKAIPGFANLDLNDQVTLLKYGVYEAIFAMLSSVMNKDGMLVAYGNGFITREFLKSLRKPFCDIMEPKFDFAMKFNALELDDSDISLFVAAIICCGDRPGLLNVGHIEKMQEGIVHVLRLHLQSNHPDDIFLFPKLLQKMADLRQLVTEHAQLVQIIKKTESDAALHPLLQEIYRDMY

These are yes or no findings as the source states them, for the method shown. In cells and extracts the contact can be indirect.
